Consider 1 substance from publication PMC4337726, “A molecular basis for the differential roles of Bub1 and BubR1 in the spindle assembly checkpoint” (eLife, 2015).

By UniProt entry, the sequences of proteins in these tests, tags left out.
UniProt Q8NG31: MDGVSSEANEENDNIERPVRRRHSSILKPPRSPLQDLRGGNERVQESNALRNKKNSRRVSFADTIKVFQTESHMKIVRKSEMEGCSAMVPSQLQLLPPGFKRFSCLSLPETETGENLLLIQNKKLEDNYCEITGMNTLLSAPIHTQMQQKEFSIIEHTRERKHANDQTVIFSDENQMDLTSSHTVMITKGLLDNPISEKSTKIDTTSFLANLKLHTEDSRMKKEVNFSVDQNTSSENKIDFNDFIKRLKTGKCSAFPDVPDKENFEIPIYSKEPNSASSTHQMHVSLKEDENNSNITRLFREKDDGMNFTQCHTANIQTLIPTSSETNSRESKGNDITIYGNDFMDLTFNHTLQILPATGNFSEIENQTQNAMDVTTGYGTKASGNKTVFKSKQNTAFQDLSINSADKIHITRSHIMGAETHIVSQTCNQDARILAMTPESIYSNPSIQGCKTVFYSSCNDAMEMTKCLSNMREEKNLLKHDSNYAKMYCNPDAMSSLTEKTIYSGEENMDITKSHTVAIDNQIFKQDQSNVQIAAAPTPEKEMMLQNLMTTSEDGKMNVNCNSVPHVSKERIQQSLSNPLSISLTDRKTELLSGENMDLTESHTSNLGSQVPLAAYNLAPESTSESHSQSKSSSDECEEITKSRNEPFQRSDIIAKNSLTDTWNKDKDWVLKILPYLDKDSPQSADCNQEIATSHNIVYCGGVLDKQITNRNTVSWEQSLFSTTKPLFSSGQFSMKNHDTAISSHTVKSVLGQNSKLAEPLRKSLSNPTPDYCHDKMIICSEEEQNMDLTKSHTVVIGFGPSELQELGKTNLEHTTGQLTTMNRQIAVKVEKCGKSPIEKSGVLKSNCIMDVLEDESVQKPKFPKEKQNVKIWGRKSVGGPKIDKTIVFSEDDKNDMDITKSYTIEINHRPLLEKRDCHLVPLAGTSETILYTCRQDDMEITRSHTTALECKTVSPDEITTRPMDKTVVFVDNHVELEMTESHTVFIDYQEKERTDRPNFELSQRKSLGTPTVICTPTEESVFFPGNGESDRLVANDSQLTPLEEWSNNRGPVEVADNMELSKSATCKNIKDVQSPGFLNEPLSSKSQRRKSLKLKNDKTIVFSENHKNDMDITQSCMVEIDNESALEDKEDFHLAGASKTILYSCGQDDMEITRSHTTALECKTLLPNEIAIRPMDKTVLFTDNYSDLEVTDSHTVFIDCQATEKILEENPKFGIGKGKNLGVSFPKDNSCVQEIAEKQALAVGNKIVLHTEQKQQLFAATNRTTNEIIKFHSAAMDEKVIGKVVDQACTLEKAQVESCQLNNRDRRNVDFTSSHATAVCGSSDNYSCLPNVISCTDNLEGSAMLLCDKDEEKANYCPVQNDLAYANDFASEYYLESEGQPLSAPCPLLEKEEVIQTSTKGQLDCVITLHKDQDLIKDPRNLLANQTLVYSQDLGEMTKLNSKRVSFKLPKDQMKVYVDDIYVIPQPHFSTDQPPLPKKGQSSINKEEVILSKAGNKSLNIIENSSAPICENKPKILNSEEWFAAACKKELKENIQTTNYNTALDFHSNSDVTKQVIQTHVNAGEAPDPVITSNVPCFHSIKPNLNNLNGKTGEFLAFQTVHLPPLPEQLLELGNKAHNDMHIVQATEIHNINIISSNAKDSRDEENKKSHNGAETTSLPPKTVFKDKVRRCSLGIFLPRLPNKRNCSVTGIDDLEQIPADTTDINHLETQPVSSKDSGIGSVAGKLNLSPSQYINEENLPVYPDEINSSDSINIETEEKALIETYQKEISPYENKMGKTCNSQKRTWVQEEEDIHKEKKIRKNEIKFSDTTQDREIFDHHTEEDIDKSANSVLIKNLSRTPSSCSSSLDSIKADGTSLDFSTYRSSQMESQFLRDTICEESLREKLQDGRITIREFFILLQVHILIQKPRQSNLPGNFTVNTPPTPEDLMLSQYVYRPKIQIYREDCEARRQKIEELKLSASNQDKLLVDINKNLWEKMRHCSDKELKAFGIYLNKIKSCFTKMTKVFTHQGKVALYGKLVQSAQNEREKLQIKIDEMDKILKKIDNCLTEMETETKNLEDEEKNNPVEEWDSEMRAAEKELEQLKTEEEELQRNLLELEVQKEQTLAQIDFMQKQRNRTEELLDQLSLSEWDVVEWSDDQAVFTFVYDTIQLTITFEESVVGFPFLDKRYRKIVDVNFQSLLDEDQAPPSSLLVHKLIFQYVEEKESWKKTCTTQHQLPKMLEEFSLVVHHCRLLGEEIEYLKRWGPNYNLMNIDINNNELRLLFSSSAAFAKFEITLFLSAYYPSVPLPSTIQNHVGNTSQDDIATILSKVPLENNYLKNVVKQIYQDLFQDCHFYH
UniProt O43684: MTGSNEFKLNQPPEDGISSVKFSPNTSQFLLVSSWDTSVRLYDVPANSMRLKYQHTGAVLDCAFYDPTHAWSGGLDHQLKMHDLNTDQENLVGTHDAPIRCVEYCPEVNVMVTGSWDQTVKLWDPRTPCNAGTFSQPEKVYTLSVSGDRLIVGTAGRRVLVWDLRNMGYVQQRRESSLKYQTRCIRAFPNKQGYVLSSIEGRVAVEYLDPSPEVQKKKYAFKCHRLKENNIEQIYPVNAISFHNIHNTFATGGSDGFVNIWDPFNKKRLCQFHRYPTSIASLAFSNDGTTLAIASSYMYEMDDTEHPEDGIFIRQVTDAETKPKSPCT

For the assay, the target named is LAP-KNL1 (human) (UniProt Q8NG31). Kind of assay: affinity purification with mass spectrometry; SILAC; LAP-BUB1 or LAP-KNL1 coupled to GFP-trap from mitotic (nocodazole) HeLa lysate; cells treated with 500 nM Reversine for 30 min or DMSO; lysis in 500 mM NaCl, washes with 2 M NaCl and 50 mM NaCl.

These are yes or no findings as the source states them, for the method shown. In cells and extracts the contact can be indirect. These calls come from enrichment with a bait or labelling near it, and not all partners need be listed.

For Bub3 (from UniProt O43684 1-328), the binding result is listed as “binds”.
